This test deals with T1, 20-22 kDa NH2-truncated tau fragment (human, UniProt P10636 26-547).
T1 construct: Endogenous fragment in human synaptosomes, mitochondria, CSF and STS-treated SH-SY5Y cells; Exact limits not proven; also called NH2htau; NH2 htau fragment
Kind of test: co-immunoprecipitation from synaptosomes with CCP-NH2 tau as bait antibody. Here is the method:
A): Western blotting comparing synaptosomal proteins (500 μg) from ND, AD (ND, AD) subjects immunoprecipitated (IP) and probed (WB) with CCP—NH₂ tau (NH₂ aa 26-36 of human tau) antiserum. Total proteins extracts (70 μg unbound) from STS-treated (6hSY5Y) neuronal human SY5Y and from AD synaptosomal proteins (INPUT) were also loaded for lane and included as positive internal control of electrophoretic mobility and immunoprecipitation efficiency. It is noteworthy that a NH₂-tau fragment around 20-22 kDa (arrow), but not-full-length proteins running at 55-75 kDa(arrowheads), was efficiently immunoprecipitated by CCP—NH₂ tau antiserum on synaptic-enriched fractions from AD. The asterisk indicate immunoglobulin light chains in immunoprecipitates and no significant cross-reactions with human intact tau iso forms was found in total, un-precipitated proteins. B-F): In C), Western blotting analysis comparing synaptosomal proteins (500 μg) from ND, AD (ND, AD) subjects immunoprecipitated (IP) with CCP—NH₂ tau (NH₂ aa26-36 of human tau) antiserum and probed (WB) with ANT-1 antibody (the least C-terminal 12 amino acids of human neuronal ANT-1). […]
Next the authors analyzed whether ANT-1—the neuronal-specific isoform of ANT protein—was a mitochondrial target of the NH₂htau fragment.

B1: Cyt C (other, human, UniProt P99999 2-105, looked up)
chain: GDVEKGKKIFIMKCSQCHTVEKGGKHKTGPNLHGLFGRKTGQAPGYSYTAANKNKGIIWGEDTLMEYLENPKKYIPGTKMIFVGIKKKEERADLIAYLKKATNE
notes: also called cytochrome c
For B1, the binding result is “no binding”.

The record behind these values is US20130210042A1 (CONSIGLIO NAZIONALE DELLE RICERCHE, published 2013).
